{"source": "the supplement of paper PMC8728848", "test_in_all_cases": "glycan array binding signal (z-score within array); higher = stronger binding", "settings_in_all_cases": "glycan notation: IUPAC condensed, linker removed", "key": {"[1]": {"molecular_target": "Gal(b1-3)GalNAc(b1-3)Gal(a1-4)Gal(b1-4)Glc", "method_in_brief": "(§1)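 Glycan array data came from 3228 arrays in the Consortium for Functional Glycomics database, and only arrays with an available protein sequence were kept. Glycan names were put into IUPAC-condensed notation, and columns mapping to the same glycan were averaged. The binding signal is a within-array Z-score, averaged across arrays of one protein sequence run at different concentrations or buffers and across linkers. A negative Z-score can be read as non-binding.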"}, "[2]": {"molecular_target": "Gal(b1-3)GalNAc(b1-4)Gal(b1-4)Glc", "method_in_brief": "as §1"}, "[3]": {"molecular_target": "Gal(b1-3)GalNAc(b1-4)[Neu5Ac(a2-3)]Gal(b1-4)Glc", "method_in_brief": "as §1"}, "[4]": {"molecular_target": "Gal(b1-3)GlcNAc", "method_in_brief": "as §1"}, "[5]": {"molecular_target": "Gal(b1-3)GlcNAc(a1-3)Gal(b1-4)GlcNAc", "method_in_brief": "as §1"}, "[6]": {"molecular_target": "Gal(b1-3)GlcNAc(a1-6)Gal(b1-4)GlcNAc", "method_in_brief": "as §1"}, "[7]": {"molecular_target": "Gal(b1-3)GlcNAc(b1-2)Man", "method_in_brief": "as §1"}, "[8]": {"molecular_target": "Gal(b1-3)GlcNAc(b1-2)Man(a1-3)[Gal(b1-3)GlcNAc(b1-2)Man(a1-6)]Man(b1-4)GlcNAc(b1-4)GlcNAc", "method_in_brief": "as §1"}, "[9]": {"molecular_target": "Gal(b1-3)GlcNAc(b1-2)Man(a1-3)[Gal(b1-3)GlcNAc(b1-2)Man(a1-6)]Man(b1-4)GlcNAc(b1-4)[Fuc(a1-6)]GlcNAc", "method_in_brief": "as §1"}, "[10]": {"molecular_target": "Gal(b1-3)GlcNAc(b1-2)Man(a1-3)[GlcNAc(b1-4)][Gal(b1-3)GlcNAc(b1-2)Man(a1-6)]Man(b1-4)GlcNAc(b1-4)GlcNAc", "method_in_brief": "as §1"}, "[11]": {"molecular_target": "Gal(b1-3)GlcNAc(b1-2)[Gal(b1-3)GlcNAc(b1-6)]Man(a1-6)[Gal(b1-3)GlcNAc(b1-2)Man(a1-3)]Man(b1-4)GlcNAc(b1-4)GlcNAc", "method_in_brief": "as §1"}, "[12]": {"molecular_target": "Gal(b1-3)GlcNAc(b1-3)Gal(b1-3)GlcNAc", "method_in_brief": "as §1"}, "[13]": {"molecular_target": "Gal(b1-3)GlcNAc(b1-3)Gal(b1-4)Glc", "method_in_brief": "as §1"}, "[14]": {"molecular_target": "Gal(b1-3)GlcNAc(b1-3)Gal(b1-4)GlcNAc", "method_in_brief": "as §1"}, "[15]": {"molecular_target": "Gal(b1-3)GlcNAc(b1-3)Gal(b1-4)GlcNAc(b1-2)Man(a1-3)[Gal(b1-3)GlcNAc(b1-3)Gal(b1-4)GlcNAc(b1-2)Man(a1-6)]Man(b1-4)GlcNAc(b1-4)GlcNAc", "method_in_brief": "as §1"}, "[16]": {"molecular_target": "Gal(b1-3)GlcNAc(b1-3)Gal(b1-4)GlcNAc(b1-2)[Gal(b1-3)GlcNAc(b1-3)Gal(b1-4)GlcNAc(b1-6)]Man(a1-6)[Gal(b1-3)GlcNAc(b1-3)Gal(b1-4)GlcNAc(b1-2)Man(a1-3)]Man(b1-4)GlcNAc(b1-4)[Fuc(a1-6)]GlcNAc", "method_in_brief": "as §1"}, "[17]": {"molecular_target": "Gal(b1-3)GlcNAc(b1-3)Gal(b1-4)GlcNAc(b1-3)Gal(b1-4)GlcNAc(b1-2)[Gal(b1-3)GlcNAc(b1-3)Gal(b1-4)GlcNAc(b1-3)Gal(b1-4)GlcNAc(b1-6)]Man(a1-6)[Gal(b1-3)GlcNAc(b1-3)Gal(b1-4)GlcNAc(b1-3)Gal(b1-4)GlcNAc(b1-2)Man(a1-3)]Man(b1-4)GlcNAc(b1-4)[Fuc(a1-6)]GlcNAc", "method_in_brief": "as §1"}, "[18]": {"molecular_target": "Gal(b1-3)GlcNAc(b1-3)Gal(b1-4)GlcNAc(b1-6)[Gal(b1-3)GlcNAc(b1-3)]Gal(b1-4)Glc", "method_in_brief": "as §1"}, "[19]": {"molecular_target": "Gal(b1-3)GlcNAc(b1-3)Gal(b1-4)[Fuc(a1-3)]GlcNAc", "method_in_brief": "as §1"}, "[20]": {"molecular_target": "Gal(b1-3)GlcNAc(b1-3)Gal(b1-4)[Fuc(a1-3)]GlcNAc(b1-6)[Gal(b1-3)GlcNAc(b1-3)]Gal(b1-4)Glc", "method_in_brief": "as §1"}, "[21]": {"molecular_target": "Gal(b1-3)GlcNAc(b1-3)GalNAc", "method_in_brief": "as §1"}, "[22]": {"molecular_target": "Gal(b1-3)GlcNAc(b1-6)Gal(b1-4)GlcNAc", "method_in_brief": "as §1"}, "[23]": {"molecular_target": "Gal(b1-3)GlcNAc(b1-6)GalNAc", "method_in_brief": "as §1"}, "[24]": {"molecular_target": "Gal(b1-3)GlcNAc(b1-6)[Gal(b1-3)]GalNAc", "method_in_brief": "as §1"}, "[25]": {"molecular_target": "Gal(b1-3)GlcNAc6S", "method_in_brief": "as §1"}, "[26]": {"molecular_target": "Gal(b1-3)[Fuc(a1-4)]GlcNAc", "method_in_brief": "as §1"}, "[27]": {"molecular_target": "Gal(b1-3)[Fuc(a1-4)]GlcNAc(b1-2)Man", "method_in_brief": "as §1"}, "[28]": {"molecular_target": "Gal(b1-3)[Fuc(a1-4)]GlcNAc(b1-2)Man(a1-3)[Gal(b1-3)[Fuc(a1-4)]GlcNAc(b1-2)Man(a1-6)]Man(b1-4)GlcNAc(b1-4)[Fuc(a1-6)]GlcNAc", "method_in_brief": "as §1"}, "[29]": {"molecular_target": "Gal(b1-3)[Fuc(a1-4)]GlcNAc(b1-3)Gal(b1-3)[Fuc(a1-4)]GlcNAc", "method_in_brief": "as §1"}, "[30]": {"molecular_target": "Gal(b1-3)[Fuc(a1-4)]GlcNAc(b1-3)Gal(b1-4)[Fuc(a1-3)]GlcNAc", "method_in_brief": "as §1"}, "[31]": {"molecular_target": "Gal(b1-3)[Fuc(a1-4)]GlcNAc(b1-6)GalNAc", "method_in_brief": "as §1"}, "[32]": {"molecular_target": "Gal(b1-3)[GlcNAc(b1-6)]GalNAc", "method_in_brief": "as §1"}, "[33]": {"molecular_target": "Gal(b1-3)[Neu5Ac(a2-6)]GalNAc", "method_in_brief": "as §1"}, "[34]": {"molecular_target": "Gal(b1-3)[Neu5Ac(a2-6)]GlcNAc(b1-4)Gal(b1-4)Glc", "method_in_brief": "as §1"}, "[35]": {"molecular_target": "Gal(b1-3)[Neu5Ac(b2-6)]GalNAc", "method_in_brief": "as §1"}, "[36]": {"molecular_target": "Gal(b1-4)Gal", "method_in_brief": "as §1"}, "[37]": {"molecular_target": "Gal(b1-4)GalNAc(a1-3)[Fuc(a1-2)]Gal(b1-4)GlcNAc", "method_in_brief": "as §1"}, "[38]": {"molecular_target": "Gal(b1-4)GalNAc(b1-3)[Fuc(a1-2)]Gal(b1-4)GlcNAc", "method_in_brief": "as §1"}}, "note": "This is one part of the list."}
{"binder": "ArathEULS3 TAP (Arabidopsis thaliana) (protein) IDENLYFQGGSMDEKTTGWRGGHVVEGLAGELEQLRARLEHHPQGQREPGGGGSLEITSLYKKAGFMEHHHQHHRHHQRDDGEDDRQSFGVPPPHVDAPPQPHGLYQSQPHFDPYAPTPQAPAPYRSETQFEPHAPPPYRSEPYFETPAPPPSFGHVSHVGHQSPNESYPPEHHRYGGYQQPSNSLLESHGDHSGVTHVAHHSSNQPQSSSGVYHKPDENRLPDNLAGLAGRATVKVYSKAEPNYNLTIRDGKVILAPADPSDEAQHWYKDEKYSTKVKDADGHPCFALVNKATGEAMKHSVGATHPVHLIRYVPDKLDESVLWTESKDFGDGYRTIRMVNNTRLNVDAYHGDSKSGGVRDGTTIVLWDWNKGDNQLWKIFPF", "values": [{"measurement": "glycan array binding signal (z-score)", "setting": "[1]", "result": 0.136}, {"measurement": "glycan array binding signal (z-score)", "setting": "[2]", "result": 0.147}, {"measurement": "glycan array binding signal (z-score)", "setting": "[3]", "result": 0.119}, {"measurement": "glycan array binding signal (z-score)", "setting": "[4]", "result": -0.009}, {"measurement": "glycan array binding signal (z-score)", "setting": "[5]", "result": -0.262}, {"measurement": "glycan array binding signal (z-score)", "setting": "[6]", "result": -0.499}, {"measurement": "glycan array binding signal (z-score)", "setting": "[7]", "result": 0.695}, {"measurement": "glycan array binding signal (z-score)", "setting": "[8]", "result": 0.989}, {"measurement": "glycan array binding signal (z-score)", "setting": "[9]", "result": 0.333}, {"measurement": "glycan array binding signal (z-score)", "setting": "[10]", "result": -0.649}, {"measurement": "glycan array binding signal (z-score)", "setting": "[11]", "result": -0.195}, {"measurement": "glycan array binding signal (z-score)", "setting": "[12]", "result": 0.63}, {"measurement": "glycan array binding signal (z-score)", "setting": "[13]", "result": -1.41}, {"measurement": "glycan array binding signal (z-score)", "setting": "[14]", "result": -1.64}, {"measurement": "glycan array binding signal (z-score)", "setting": "[15]", "result": -0.446}, {"measurement": "glycan array binding signal (z-score)", "setting": "[16]", "result": 0.246}, {"measurement": "glycan array binding signal (z-score)", "setting": "[17]", "result": 0.305}, {"measurement": "glycan array binding signal (z-score)", "setting": "[18]", "result": 1.84}, {"measurement": "glycan array binding signal (z-score)", "setting": "[19]", "result": 0.039}, {"measurement": "glycan array binding signal (z-score)", "setting": "[20]", "result": -0.934}, {"measurement": "glycan array binding signal (z-score)", "setting": "[21]", "result": -1.54}, {"measurement": "glycan array binding signal (z-score)", "setting": "[22]", "result": -1.14}, {"measurement": "glycan array binding signal (z-score)", "setting": "[23]", "result": -1.34}, {"measurement": "glycan array binding signal (z-score)", "setting": "[24]", "result": -0.73}, {"measurement": "glycan array binding signal (z-score)", "setting": "[25]", "result": 1.55}, {"measurement": "glycan array binding signal (z-score)", "setting": "[26]", "result": -0.187}, {"measurement": "glycan array binding signal (z-score)", "setting": "[27]", "result": -0.027}, {"measurement": "glycan array binding signal (z-score)", "setting": "[28]", "result": -0.44}, {"measurement": "glycan array binding signal (z-score)", "setting": "[29]", "result": -0.335}, {"measurement": "glycan array binding signal (z-score)", "setting": "[30]", "result": 0.049}, {"measurement": "glycan array binding signal (z-score)", "setting": "[31]", "result": -0.667}, {"measurement": "glycan array binding signal (z-score)", "setting": "[32]", "result": 0.386}, {"measurement": "glycan array binding signal (z-score)", "setting": "[33]", "result": -0.111}, {"measurement": "glycan array binding signal (z-score)", "setting": "[34]", "result": -0.335}, {"measurement": "glycan array binding signal (z-score)", "setting": "[35]", "result": -0.468}, {"measurement": "glycan array binding signal (z-score)", "setting": "[36]", "result": -0.966}, {"measurement": "glycan array binding signal (z-score)", "setting": "[37]", "result": -0.431}, {"measurement": "glycan array binding signal (z-score)", "setting": "[38]", "result": 1.97}]}
